Our source for the binding values is paper PMC4561369.

Chains of the proteins cited; added tags and fusions are not shown.
UniProt Q91YN9: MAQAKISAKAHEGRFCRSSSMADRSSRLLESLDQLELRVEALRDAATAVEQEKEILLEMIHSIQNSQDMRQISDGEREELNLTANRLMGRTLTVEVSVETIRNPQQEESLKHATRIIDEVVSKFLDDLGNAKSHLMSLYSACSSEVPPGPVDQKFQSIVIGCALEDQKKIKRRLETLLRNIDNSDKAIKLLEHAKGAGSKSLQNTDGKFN

These are yes or no findings as the source states them, for the method shown. Binding seen in cells or lysates may run through a third protein. Some results given as binding are weak or reduced against the parent protein; the word gives no strength.

Assay [1] has as its target mutant p53 (mutp53) R172H protein of Trp53^R172H/R172H knock-in mice (mouse (endogenous in tissues of Trp53^R172H/R172H mice)) (UniProt P02340). As to the kind of experiment: co-IP; lysates of thymic lymphomas of Trp53^R172H/R172H mice (p53^−/− lymphomas as control) in NP-40 buffer; IP with anti-p53 (FL393), Western blot. A general note: In western blotting, separated proteins are transferred to a membrane and probed.

For assay [2] the target is unchanged. Kind of assay: co-IP; lysates of normal thymus, spleen and kidney of Trp53^R172H/R172H mice in NP-40 buffer; IP with anti-p53 (FL393), Western blot.

Consider “BAG2 (mouse, endogenous) (from UniProt Q91YN9 1-210)”, for which the binding result in assay [1] is on record as “binds”; in assay [2] it was “binds weakly”.
